Measured values: PubChem BioAssay AID493014 (National Center for Advancing Translational Sciences (NCATS), 2011)
Some of the results follow. The main result of the screen is listed elsewhere. These columns were measured beside it and carry no call. Most of these compounds were active or inconclusive in the main read-out, so they are no random draw. Potencies come from curve fits of mixed quality, noted in brackets.

Assay: qHTS Assay to Find Inhibitors of Chronic Active B-Cell Receptor Signaling
Settings: ABC-DLBCL IkBa-CBG/CBR reporter, luminescence ratio (green luciferase fused to IkBa over red control in TMD8 lymphoma cells), 4 h
How it was run: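 Cell line TMD8 (human ABC DLBCL), stably expressing tet-inducible CBG68-IkBa fusion and CBR; IMDM/0.5% FBS; cpd up to 46 uM; dox induction, 4 h, 37C/5% CO2; dual luminescence; green/red ratio; MG132 control.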

[1] = measured here: CBR red luminescence, cell number
[2] = measured here: IkBa-CBG green luminescence

Row | Compound | AC50 [1] | AC50 [2]
1 | O=C(N/N=C/c1cccc(OC(=O)c2ccc3c(c2)OCO3)c1)c1cncc(Br)c1 | 29.1 µM [falling, single point] | 
2 | Cc1ccc(F)cc1NC(=O)CN1C(=O)NC2(CCCc3ccccc32)C1=O (stereo unspecified) | 13 µM [falling, partial curve, poor fit] | 
3 | CCC(Sc1nnnn1-c1ccccc1)C(=O)Nc1nc2ccccc2s1 (stereo unspecified) | 16.4 µM [falling, partial curve] | 
4 | COc1ccc(/C=N/NC(=O)c2ccccc2)cc1CN1CCN(c2ccc(F)cc2)CC1 | 8.91 µM [falling, partial curve] | 
5 | Cc1cccc(NC(=O)CC2SC(=NC3CCCCC3)NC2=O)c1 (stereo unspecified) | 29.1 µM [falling, partial curve, poor fit] | 
6 | O=c1[nH]c2ccc(NCc3ccccc3OCc3ccc(Cl)cc3)cc2[nH]1 |  | 15.8 µM [falling, partial curve, poor fit]
7 | CC(C)(CNC(=O)c1ccc(Br)o1)N1CCOCC1 | 3.98 µM [rising, partial curve, poor fit] | 
8 | CCOC(=O)CNC(=O)c1sc(NC(=O)/C=C/c2ccccc2)nc1C | 8.91 µM [falling, partial curve, poor fit] | 
9 | COc1cccc(-n2nnc3c(=O)n(CC(=O)Nc4ccc(C)cc4)cnc32)c1 | 11.2 µM [rising, partial curve, poor fit] | 
10 | O=C(NNS(=O)(=O)c1ccccc1)c1cnn(-c2ccccc2)c1-n1cccc1 | 11.2 µM [falling, partial curve, poor fit] | 
11 | CC(C)n1c2ccccc2c2cc([N+](=O)[O-])ccc21 | 29.1 µM [rising, single point] | 
12 | CCOc1cccc2sc(NC(=O)c3ccc(Br)s3)nc12 | 0.0092 µM [falling, full curve] | 0.731 µM [rising, full curve, poor fit]
13 | Cc1ccccc1OCc1nnc(SCC(=O)Nc2ccc3c(c2)oc2ccccc23)n1C | 6.51 µM [falling, single point] | 
14 | Nc1cc(N)nc(SCC(=O)Nc2ccccc2)n1 | 16.4 µM [rising, single point] | 
15 | CC(C)Oc1ccc(CNC(=O)Cn2c(=O)c3cccn3c3cccnc32)cc1 | 14.1 µM [rising, single point] | 
16 | CC(=O)C1=C(C)NC(SCC(=O)c2ccccc2)=C(C#N)C1CC(C)C (stereo unspecified) | 10.3 µM [rising, partial curve, poor fit] | 
17 | Cc1ccccc1NC(=O)/C(C#N)=C\c1cc(C)n(-c2ccc(C(=O)O)cc2)c1C | 3.55 µM [rising, partial curve, poor fit] | 
18 | COc1cccc(NC(=O)CSc2nccn(-c3ccc4c(c3)OCCO4)c2=O)c1 | 29.1 µM [falling, partial curve, poor fit] | 
19 | Cc1c(CNCCc2ccc(Cl)cc2)c(C(=O)O)c(C)n1Cc1ccccc1 | 6.31 µM [rising, partial curve, poor fit] | 
20 | O=C(Nc1ccsc1C(=O)O)c1ccccc1Cl | 35.5 µM [falling, single point] | 

Row | Compound | AC50 [1] | AC50 [2]
21 | CS(=O)(=O)NCCSc1cc(C(F)(F)F)nc2ccccc12 | 7.08 µM [rising, full curve, poor fit] | 
22 | CCOC(=O)c1cnc(-n2nc(C)cc2C)nc1Oc1ccc(C(=O)OC)cc1 | 0.398 µM [rising, partial curve, poor fit] | 
23 | CCOC(=O)/C(C(=O)Nc1ccccc1Cl)=C1/NC(C)(C)Cc2ccccc21 | 23.1 µM [rising, partial curve, poor fit] | 
24 | Cc1ccc2c(Cl)cc(Cl)c(OCC(=O)N3CCCC3)c2n1 | 11.2 µM [rising, partial curve, poor fit] | 
25 | COc1ccccc1NC(=O)c1c(NCc2ccc(C)o2)sc2c1CCC(C)C2 (stereo unspecified) | 35.5 µM [falling, single point] | 
26 | COc1ccc(-n2cc3ccc([N+](=O)[O-])cc3n2)cc1 | 0.251 µM [rising, full curve, poor fit] | 
27 | CC(Oc1ccc(Cl)cc1)C(=O)NNC(=S)NC(=O)c1ccco1 (stereo unspecified) | 20.6 µM [rising, single point] | 
28 | Cc1cccc(C(=O)N2CCN(c3ccc([N+](=O)[O-])c(N4CCOCC4)c3)CC2)c1 | 12.6 µM [falling, partial curve, poor fit] | 
29 | COc1ccc(-c2nc3cc(NC(=O)Cc4ccc(OC)c(OC)c4)ccc3o2)cc1 | 1.16 µM [rising, full curve] | 
30 | CC(=O)Nc1ccc(OC(=O)c2cccs2)cc1 | 29.1 µM [rising, single point] | 
31 | O=[N+]([O-])c1cccnc1NCCc1ccccc1 | 5.01 µM [rising, single point] | 
32 | COc1ccc(/C=C/C(=O)c2ccccc2)cc1Cn1nnc2ccccc21 | 7.31 µM [falling, partial curve] | 29.1 µM [rising, single point]
33 | O=C1CCCN1CCCNS(=O)(=O)c1ccc(Cl)c(C(=O)N2CCOCC2)c1 | 32.6 µM [rising, single point] | 
34 | Cc1ccc(CNC(=O)C(=O)NCCC2CCCCN2S(=O)(=O)c2ccc(C)cc2)cc1 (stereo unspecified) | 32.6 µM [falling, single point] | 
35 | CCN1C(=O)C2(Nc3ccccc3-c3nc4ccccc4n32)c2cc(OC)ccc21 (stereo unspecified) | 35.5 µM [falling, single point] | 
36 | O=C(CCCN1C(=O)/C(=C/c2ccccc2Cl)SC1=S)NNC(=O)c1ccccc1Cl | 2.31 µM [falling, full curve, poor fit] | 
37 | O=C(COC(=O)/C=C/c1ccc2c(c1)OCO2)NC1CCS(=O)(=O)C1 (stereo unspecified) | 35.5 µM [falling, single point] | 
38 | COc1ccc(Cl)cc1NC(=O)CN(C)C(=O)CNC(=O)C12CC3CC(CC(C3)C1)C2 | 29.1 µM [falling, single point] | 
39 | Cn1c(CN2CCN(CC#N)CC2)c(C#N)c2ccccc21 | 4.11 µM [falling, single point] | 
